## Assay results

From PubChem BioAssay record AID1159506 (NCATS, 2015).

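Luminescence from an EWS-FLI1 target-promoter (NR0B1) reporter, set against a CMV-promoter reporter, two days after silencing single genes in TC32 Ewing sarcoma cells.
Each siRNA was applied at 20 nM.
A z-score of the log NR0B1-over-CMV signal, less the median of siRNAs with the same seed; more negative means a stronger specific loss of the NR0B1 reporter.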

The strongest results of the screen are mostly left out here.
Sequences are the guide (antisense) strand, without overhang.

UGUCAGCUCAUUCAGCUCC against OSBPL7 gave seed-corrected z-score 0.02753.
UAAAAUGAUCUUCCGAUGC against THOC3 gave seed-corrected z-score 0.7364.
ACUGGGAUGAUGACGAGCA against IFITM2 gave seed-corrected z-score 1.196.
UUGGAUACUCAAGCACUGG against ACOX3 gave seed-corrected z-score 0.5314.
ACUGUGCAGAAAGACCACG against LOC642452 gave seed-corrected z-score 0.04267.
UCCUAAUUUAGCUUUCUGA against RGCC gave seed-corrected z-score -0.1025.
AAGGUUCUCCCGAAGGUUC against FKBPL gave seed-corrected z-score -0.09807.
UUCUCUUUCUCGAAAUCGG against IRF2BP1 gave seed-corrected z-score 0.7524.
UGUUGAUCUUCUUAGAUGC against UTRN gave seed-corrected z-score -0.7788.
UUCGAGUGGAGUUUUGUUG against OPRM1 gave seed-corrected z-score -0.5665.
UUGGUUUCCCAUGAGCUCC against LOC388282 gave seed-corrected z-score -0.6645.
UUUCUGCUCAUGACGAGGU against EEF2KMT gave seed-corrected z-score -0.7304.
UAGUGUACAUGGUAUGUCC against OR2AG2 gave seed-corrected z-score 0.266.
AUCGGAAUUAAGGUUGUCA against TMEM97 gave seed-corrected z-score 1.431.
UAUGGGCUAAGAGAUGUCC against NFATC3 gave seed-corrected z-score -1.031.
UCAAAAUUACGCCUUAAUG against FAM53A gave seed-corrected z-score -0.1218.
UUCAAUUUCAAUUCGGCUG against RIDA gave seed-corrected z-score 0.1772.
UUUCUCACUGAGUUCAUUC against TXLNGY gave seed-corrected z-score 0.3535.
UGUUUAAAGUGGUAAAAUG against UPK2 gave seed-corrected z-score 0.01538.
UUCUUGUCUCAUAUCCUCC against KRT23 gave seed-corrected z-score -0.312.
UAUGUCAGCACGCAGAAGG against LOC643072 gave seed-corrected z-score -0.1083.
UAAGGAAGCCGAUCCAUUG against ADRA2B gave seed-corrected z-score 0.06524.
UGUGGAAUCGCUCCUCCUC against CRACR2B gave seed-corrected z-score 0.1322.
AACUUUCGCAUUGACAGCG against LAMB4 gave seed-corrected z-score -0.4372.
UAAAUGUCCAUACUUGAUG against CD80 gave seed-corrected z-score 0.5017.
UCUGUGGAAUCCCUGAGCU against TREML3P gave seed-corrected z-score 0.9361.
AACGGCAUAGGCAAGCUUC against DDX19A gave seed-corrected z-score -0.8583.
UACCGGACUCCCAAACUGC against SLC16A13 gave seed-corrected z-score 0.218.
UGCUCAUCCCUUGACAGUC against HS6ST1 gave seed-corrected z-score -0.4598.
UUUCUUUCCAGUGUCCGCA against ZNHIT1 gave seed-corrected z-score -0.1148.
UGUAAUUGUAGCACAGAGC against OR2AG1 gave seed-corrected z-score -0.2996.
UUCCUUGUUGUAUUCUUCC against CUX1 gave seed-corrected z-score 0.2238.
UUAUGAUCCAGUUCUAGGG against DNAJC7 gave seed-corrected z-score -0.435.
UUCUUGUACUGCUUGAAGG against C18orf54 gave seed-corrected z-score 0.1711.
UCAUAGACAACCUCCAUGC against MKRN3 gave seed-corrected z-score -0.1701.
UCAUCUACGAGGUCGAGAG against TRAPPC2 gave seed-corrected z-score 0.4557.

Repeated from the top, 3 entries:

| Sequence | target gene | seed-corrected z-score |
|---|---|---|
| `UGUCAGCUCAUUCAGCUCC` | OSBPL7 | 0.02753 |
| `UAAAAUGAUCUUCCGAUGC` | THOC3 | 0.7364 |
| `ACUGGGAUGAUGACGAGCA` | IFITM2 | 1.196 |